Measured data: PubChem BioAssay AID1259424 (University of Nebraska Medical Center, 2018)
Purpose: 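Rank knockdowns across the genome by resemblance to the KSR1 depletion profile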 (primary screen). Cell system: human HCT116 colon cancer cells. Reagent: siRNA pool against human genes, 50 nM. Measurement: 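Six signature mRNAs by branched-DNA multiplex assay, scaled to two housekeeping genes and non-targeting median, log2; matched to mean KSR1 knockdown profile by Pearson correlation and euclidean distance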. Direction: mean correlation with KSR1 profile: higher = expression change more like KSR1 knockdown.
The whole screen tested about 14,000 reagents; this is an unselected part. 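Higher correlation or smaller distance means closer resemblance to KSR1 loss; control wells, including KSR1 knockdowns, recur on many plates.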 Reagents against one gene are numbered here. A reagent listed more than once was tested more than once; the source does not tell the runs apart. Not all columns of the deposit are shown. The record does not give: the time to read-out.

mean correlation with KSR1 profile, by gene and reagent
PMCHL1: #1 -0.254
STXBP5L: #1 -0.196
CELF3: #1 -0.349
PLPBP: #1 -0.455
ARHGAP21: #1 -0.37
EPC1: #1 0.42
KRT6B: #1 -0.417
MC3R: #1 -0.22
IFT22: #1 -0.184
ANO10: #1 -0.476
CFHR5: #1 0.173
AUP1: #1 0.103
ARSB: #1 0.0991
SHANK2: #1 0.145
GALNT6: #1 -0.0497
IP6K2: #1 -0.0444
SPRR3: #1 -0.594
BHLHE22: #1 -0.375
ZMPSTE24: #1 -0.472
CD163L1: #1 -0.669
CDH7: #1 -0.126
MAPKAPK2: #1 0.244
KALRN: #1 -0.492; #2 -0.375
GTF3A: #1 0.582
PRAG1: #1 -0.403
PGGT1B: #1 -0.463
GAPDH: #1 -0.1
MRPL4: #1 -0.449
MSH6: #1 0.688
RIPK2: #1 0.595
ADRA1B: #1 0.363; #1 0.844
SMIM7: #1 0.00714
MYBPC3: #1 0.348
POLD1: #1 0.609
SNX5: #1 -0.332
SLC9A7: #1 0.655
DUSP1: #1 0.0804
NDC80: #1 -0.282
MRPL34: #1 0.0785
NHLH1: #1 0.541
CST3: #1 -0.026
ST6GALNAC5: #1 0.246
DLG3: #1 -0.349
ZW10: #1 0.0796
AP1S2: #1 -0.136
ASNSD1: #1 -0.839
IGSF21: #1 0.395
SGCB: #1 -0.539

3 entries from above, arranged by “mean correlation with KSR1 profile”, descending:
gene	reagent	mean correlation with KSR1 profile
IP6K2	1	-0.0444
GALNT6	1	-0.0497
SPRR3	1	-0.594
